Data from patent US20110129457A1.
Results are given in words; binding and its absence hold for the method and conditions named. Some binding calls cover weakened binding; strength is not graded here. Tags and fused reporters may be left off the sequences shown.

By UniProt entry, the sequences of proteins in these tests, tags left out. Residues count along the entry.
UniProt Q15465, residues 25-197: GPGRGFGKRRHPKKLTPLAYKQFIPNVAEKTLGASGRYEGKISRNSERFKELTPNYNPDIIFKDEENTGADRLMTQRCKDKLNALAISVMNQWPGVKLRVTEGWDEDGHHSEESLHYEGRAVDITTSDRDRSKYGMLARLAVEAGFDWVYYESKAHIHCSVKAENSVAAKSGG

Assays:
[1] = target: Shh649 (ShhC-Cys conjugated with DyLight 649 Maleimide) (human) (UniProt Q15465); assay: FACS competition: 0.33 nM Shh649 preincubated with 56 nM inhibitor, then bound to Ptch1 cells or 293 cells; the blocked partner is Ptch1
[2] = target: Shh649 (ShhC-Cys conjugated with DyLight 649 Maleimide) (human) (UniProt Q15465); assay: FACS: 15 nM Shh649 with 520 nM Hhip1β12 on 293 cells (Hhip1β12 sticks nonspecifically to the cells and recruits Shh649) and on Ptch1 cells
[3] = target: Shh649 (ShhC-Cys conjugated with DyLight 649 Maleimide) (human) (UniProt Q15465); assay: FACS competition: 1 nM Shh649 preincubated with the inhibitor, then bound to Ptch1-expressing 293 cells; the blocked partner is Ptch1
[4] = target: Shh649 (ShhC-Cys conjugated with DyLight 649 Maleimide) (human) (UniProt Q15465); assay: FACS competition: Shh649 preincubated with protein, then Ptch1-293 cells
[5] = target: Shh649 (ShhC-Cys conjugated with DyLight 649 Maleimide) (human) (UniProt Q15465); assay: FACS: Shh649 recruited to 293 cells (data not shown)

Measured: binding

B1: Hhip1β12 (β-propeller-EGF1-EGF2, residues 193-667), C-terminal His6-tag (receptor)
chain: SNYLDQMEEYDKVEEISRKHKHNCFCIQEVVSGLRQPVGALHSGDGSQRLFILEKEGYVKILTPEGEIFKEPYLDIHKLVQSGIKGGDERGLLSLAFHPNYKKNGKLYVSYTTNQERWAIGPHDHILRVVEYTVSRKNPHQVDLRTARVFLEVAELHRKHLGGQLLFGPDGFLYIILGDGMITLDDMEEMDGLSDFTGSVLRLDVDTDMCNVPYSIPRSNPHFNSTNQPPEVFAHGLHDPGRCAVDRHPTDININLTILCSDSNGKNRSSARILQIIKGKDYESEPSLLEFKPFSNGPLVGGFVYRGCQSERLYGSYVFGDRNGNFLTLQQSPVTKQWQEKPLCLGTSGSCRGYFSGHILGFGEDELGEVYILSSSKSMTQTHNGKLYKIVDPKRPLMPEECRATVQPAQTLTSECSRLCRNGYCTPTGKCCCSPGWEGDFCRTAKCEPACRHGGVCVRPNKCLCKKGYLGPQCEHHHHHH
not listed: [5]
binds: all other assays above

B2: Hhip1β12-Fc (Fc fusion, not shown: a dimerising Fc or GST)
chain: SNYLDQMEEYDKVEEISRKHKHNCFCIQEVVSGLRQPVGALHSGDGSQRLFILEKEGYVKILTPEGEIFKEPYLDIHKLVQSGIKGGDERGLLSLAFHPNYKKNGKLYVSYTTNQERWAIGPHDHILRVVEYTVSRKNPHQVDLRTARVFLEVAELHRKHLGGQLLFGPDGFLYIILGDGMITLDDMEEMDGLSDFTGSVLRLDVDTDMCNVPYSIPRSNPHFNSTNQPPEVFAHGLHDPGRCAVDRHPTDININLTILCSDSNGKNRSSARILQIIKGKDYESEPSLLEFKPFSNGPLVGGFVYRGCQSERLYGSYVFGDRNGNFLTLQQSPVTKQWQEKPLCLGTSGSCRGYFSGHILGFGEDELGEVYILSSSKSMTQTHNGKLYKIVDPKRPLMPEECRATVQPAQTLTSECSRLCRNGYCTPTGKCCCSPGWEGDFCRTAKCEPACRHGGVCVRPNKCLCKKGYLGPQCE
not listed: [2]
binds: all other assays above
